Structures are written as SMILES. ≈ marks a conversion by molar mass, not a printed value.

The test deals with M. tuberculosis. The experiment in a line: microbe, parasite or virus in culture. It counts as cell-based. Particulars: Mycobacterium tuberculosis, read-out: median MIC.

In the case of `CO[C@H]1/C=C/O[C@@]2(C)Oc3c(C)c(O)c4c(O)c(c(/C=N/N5CCN(C)CC5)c(O)c4c3C2=O)NC(=O)/C(C)=C\C=C\[C@H](C)[C@H](O)[C@@H](C)[C@@H](O)[C@@H](C)[C@H](OC(C)=O)[C@@H]1C` [rifampin, reference compound], the MIC worked out at 1 µg/mL (≈ 1.22 µM).

For the origin of these results see patent publication US8378085B2, “Bacterial ATP synthase binding domain” (priority 2004, dated 2013).
